# Data published in patent US20220125777A1, “COMBINATION OF A CDK INHIBITOR AND A PIM INHIBITOR” (Pfizer Inc., priority 2019, published 2022).
# For at least one compound, name, drawing or mass did not settle the structure.
# Assays:
# [1] = test system: ER+/HER2− advanced breast cancer; assay: Study 1: progression-free survival by PIM2 mRNA expression, palbociclib plus letrozole vs placebo plus letrozole; format: in vivo, human; details: Study 1 cohort, FIG. 1A
# [2] = test system: HR+/HER2− advanced or metastatic breast cancer; assay: Study 2: progression-free survival by PIM2 mRNA expression, palbociclib plus fulvestrant vs placebo plus fulvestrant; format: in vivo, human; details: Study 2 cohort, FIG. 2A
# Description: Study 2 was conducted in HR+/HER2− advanced or metastatic breast cancer (MBC) patients who had progressed on prior endocrine therapy. Pre- and peri-menopausal subjects were given an LHRH agonist. Subjects were treated with palbociclib (125 mg QD, 3/1 schedule) plus fulvestrant (500 mg IM on Days 1 and 15 of Cycle 1, and then Day 1 of each subsequent 28-day cycle) or placebo (3/1 schedule QD) plus fulvestrant on the same schedule. In both studies, the primary outcome was PFS as assessed by the investigator.
# Tumor samples were analyzed to identify potential predictive biomarkers for palbociclib plus letrozole treatment. Using the EdgeSeq Oncology BM Panel, mRNA expression was assessed for 2534 cancer-related genes. […] Targeted capture sequencing was used to quantitate RNA expression levels of gene targets. […]
# The primary outcome was PFS as assessed by the investigator.
# Tumor samples were analyzed by EdgeSeq Oncology BM Panel (HTG Molecular Diagnostics; https://www.htgmolecular.com/assays/obp) for mRNA expression assessment of 2534 cancer-related genes. […]
# The EdgeSeq system used was validated and used targeted capture sequencing to quantitate RNA expression levels of gene targets in formalin-fixed paraffin-embedded tumor tissues. […]
structure (smiles),measurement,setting,value
CC(=O)c1c(C)c2cnc(Nc3ccc(N4CCNCC4)cn3)nc2n(C2CCCC2)c1=O [palbociclib],magnitude of relative palbociclib benefit (PFS) in patients with higher PIM2 mRNA expression,[1],smaller
same,magnitude of relative palbociclib benefit (PFS) in patients with higher PIM2 mRNA expression,[2],smaller
